Each structure is given as a SMILES string. Where “and” joins values, the source holds several entries; their conditions need not be identical. Equal entries are not always repeated. This is one part of the list. The main result of the screen is listed elsewhere. These columns were measured beside it and carry no call. Compounds called inactive in the main read-out are mostly missing here. The note in brackets gives the kind of curve behind each potency; many fits are weak.

In PubChem BioAssay AID493014 (National Center for Advancing Translational Sciences (NCATS), 2011) one finds AC50 data, which are given here for 63 compounds.

A short description of this assay: qHTS Assay to Find Inhibitors of Chronic Active B-Cell Receptor Signaling. The conditions noted are these: ABC-DLBCL IkBa-CBG/CBR reporter, luminescence ratio (green luciferase fused to IkBa over red control in TMD8 lymphoma cells), 4 h. Summed up: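 TMD8 ABC-DLBCL cells carrying doxycycline-inducible green luciferase fused to IkappaBalpha plus unfused red luciferase were exposed to compounds (up to 46 uM) for 4 hrs at 37C. Activity came from the overlap-corrected green/red luminescence ratio.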
(In qHTS, concentration-response curves come from the screen itself.)

Where [1] appears, read: measured here: CBR red luminescence, cell number.
The mark [2] stands for this setting: measured here: IkBa-CBG green luminescence.

As to `CN(C(=O)c1cc(-c2ccccc2)on1)C1CCCCC1`, under setting [1], the AC50 is 10 µM [falling, partial curve].

On to `Cn1c(N)c(C(C[N+](=O)[O-])c2c(F)cccc2Cl)c(=O)n(C)c1=O` (stereo not drawn), for which the concentration at half-maximal activity (AC50) under setting [1] was 35.5 µM [falling, single point] and the half-maximal activity concentration (AC50) under setting [2] is 5.01 µM [rising, single point].

With `O=C(Nc1cccc(Cl)c1)N1CCOCC1`, the concentration at half-maximal activity (AC50) under setting [1] was 5.62 µM [rising, partial curve, poor fit].

`C=C(C)CSc1nc(N)c2c(C)c(C)sc2n1`: under setting [1], the AC50 was 1.41 µM [rising, partial curve].

Consider `CC1(C)CSC(=NCc2ccccc2)N1C(=O)c1cccc([N+](=O)[O-])c1`, for which, under setting [1], the concentration at half-maximal activity (AC50) was 2.91 µM [rising, partial curve, poor fit].

Take `O=S(=O)(c1ccc2c(c1)CCCN2)N1CCCC1`: under setting [1], the concentration at half-maximal activity (AC50) was 2.06 µM [rising, partial curve].

Turning to `COc1cc(CNCc2ccc(OC)c3ccccc23)cc(OC)c1OC`, under setting [1], the AC50 was 7.94 µM [falling, partial curve].

`COCc1cc(CN2CCCC2)c(O)c2ncccc12`: the AC50 under setting [1] was 0.891 µM [falling, full curve, poor fit].

In the case of `CCO[C@H]1OC(C(=O)NC2CC2)=C[C@@H](c2c[nH]c3ccccc23)[C@@H]1CCCO`, the AC50 under setting [1] is 3.16 µM [falling, single point].

Take `CC(=O)N/C(=C\c1ccccc1)C(=O)Nc1ccccc1C`: the half-maximal activity concentration (AC50) under setting [1] is 12.6 µM [rising, partial curve, poor fit].

`COC(=O)c1ccc(COc2ccccc2/C=C/C(=O)c2ccc(OCC(=O)O)cc2)cc1`: under setting [1], the AC50 is 2.82 µM [falling, full curve, poor fit].

For the compound `N#CC/C(N)=N/Nc1nc2ccccc2nc1Cc1ccccc1`, the AC50 under setting [1] was 5.62 µM [falling, partial curve, poor fit].

Consider `O=C(Nc1cc(S(=O)(=O)N2CCCCC2)ccc1O)c1ccccc1NS(=O)(=O)c1ccc(F)cc1`, for which the half-maximal activity concentration (AC50) under setting [2] is 20.6 µM [rising, partial curve, poor fit].

With `CC1CCCC(NC(=O)NC(=O)CCl)C1C` (stereo not drawn), the AC50 under setting [1] is 13 µM [falling, partial curve].

Take `CN=C1S/C(=C\c2ccc(OCC(=O)OC)c(OC)c2)C(=O)N1C`: under setting [1], the concentration at half-maximal activity (AC50) is 35.5 µM [falling, single point].

In the case of `CCOC(=O)N1CCN(S(=O)(=O)c2ccc(C(=O)Nc3sc4c(c3C(N)=O)CCN(CC)C4)cc2)CC1`, the AC50 under setting [1] was 11.2 µM [rising, single point] and the AC50 under setting [2] is 35.5 µM [rising, partial curve, poor fit].

On to `Cc1cc(C(=O)NC(C)Cc2ccccc2)cc(C)c1[N+](=O)[O-]` (stereo not drawn), for which the AC50 under setting [1] is 8.91 µM [rising, partial curve, poor fit].

Consider `Cn1c(CSCc2ccccc2)nnc1SCC(=O)Nc1nccs1`, for which the AC50 runs as follows: under setting [1], 20.6 µM [falling, single point]; under setting [2], 4.61 µM [rising, partial curve, poor fit].

Turning to `c1ccc(C2C3=C(Nc4ncnn42)c2ccccc2CCC3)cc1` (stereo not drawn), under setting [1], the AC50 is 12.6 µM [falling, partial curve].

In the case of `O=[N+]([O-])c1cccc(/C=N\N=C2c3ccccc3-c3ccccc32)c1O`, the concentration at half-maximal activity (AC50) under setting [1] was 0.517 µM [rising, full curve, poor fit].

Regarding `O=[N+]([O-])c1ccc(-n2nnnc2CN2CCCCC2)cc1`, under setting [1], the concentration at half-maximal activity (AC50) was 10 µM [falling, partial curve].

Consider `O=C(NCCc1ccccc1)c1cc(=O)[nH]c2ccccc12`, for which, under setting [1], the AC50 is 10 µM [rising, partial curve, poor fit].

Consider `Cc1cc(C(=O)Nc2cccc3ccccc23)c(C)o1`, for which, under setting [1], the half-maximal activity concentration (AC50) is 35.5 µM [rising, single point].

On to `CCOC1(c2ccccc2)OC(=O)c2ccccc21` (stereo not drawn), for which the AC50 under setting [1] was 3.26 µM [rising, partial curve, poor fit].

With `COc1cc(Br)c(CNc2cc(C)ccc2C)cc1OC`, under setting [1], the AC50 is 17.8 µM [falling, single point].

For `CC1=C(c2ccc(F)cc2)[N+](=O)C(C)(C)N1[O-]`, the AC50 under setting [1] was 28.2 µM [falling, single point].

`C=CCOc1c(Cl)cc(CNc2nccs2)cc1OC`: the AC50 under setting [1] was 0.708 µM [rising, full curve].

With `CCCCOC(=O)c1ccc(Nc2ncnc3[nH]ncc23)cc1`, the half-maximal activity concentration (AC50) under setting [1] was 11.2 µM [rising, partial curve].

Turning to `COC(=O)c1ccccc1Sc1ncnc2onc(C)c12`, under setting [1], the concentration at half-maximal activity (AC50) was 17.8 µM [falling, single point].

`CCn1c(=O)cc(SCC(=O)Nc2ccc3c(c2)OCCO3)c2ccccc21`: under setting [1], the concentration at half-maximal activity (AC50) was 22.4 µM [falling, single point].

On to `Cc1ccc(NC(=O)/C=C/c2ccc([N+](=O)[O-])s2)cc1`, for which the half-maximal activity concentration (AC50) under setting [1] was 0.461 µM [falling, full curve, poor fit].

Regarding `Cc1ccc(S(=O)(=O)CNC(=S)c2cccc(C)c2)cc1`, the concentration at half-maximal activity (AC50) under setting [2] is 29.1 µM [falling, single point].

Take `COc1cccc(NC(=O)C2CCN(S(=O)(=O)c3ccc4c(c3)NC(=O)C(C)S4)CC2)c1` (stereo not drawn): the AC50 under setting [1] was 15.8 µM [falling, single point].

For `COCCN1C(=O)c2oc3c(C)cc(C)cc3c(=O)c2C1c1cccc(O)c1` (stereo not drawn), the concentration at half-maximal activity (AC50) under setting [1] was 32.6 µM [falling, single point].

For the compound `CCc1nnc2n1N=C(c1ccc(-c3cc(Cl)ccc3Cl)o1)CS2`, the AC50 under setting [1] was 22.4 µM [falling, single point].

Regarding `c1ccc(-n2ncc3c(NCc4cccnc4)ncnc32)cc1`, the AC50 under setting [1] is 0.164 µM [rising, partial curve, poor fit].

Consider `O=C(Nc1ccccc1)Nc1ncc([N+](=O)[O-])s1`, for which the AC50 under setting [1] is 0.355 µM [falling, full curve].

As for `CN(CC(=O)O/N=C(\N)c1ccc([N+](=O)[O-])cc1)S(=O)(=O)c1ccc2ccccc2c1`, under setting [1], the AC50 is 6.51 µM [rising, single point].

For the compound `CC(=O)/C(=C/N(C)C)C(=O)Nc1ccc(Cl)cc1Cl`, the AC50 under setting [1] was 31.6 µM [falling, single point].

Turning to `CN1c2ccccc2C(O)=C(C(=S)Nc2ccc(F)c(Cl)c2)S1(=O)=O`, the half-maximal activity concentration (AC50) under setting [1] is 16.4 µM [falling, partial curve].

Regarding `Cc1[nH]c(-c2ccc(F)cc2)cc1C(=O)N1CCN(c2ccc(Cl)cc2)CC1`, the AC50 under setting [1] is 35.5 µM [falling, partial curve, poor fit].

Turning to `O=C(CN1CCC(NC(=O)c2ccco2)CC1)Nc1cccc2ccccc12`, the concentration at half-maximal activity (AC50) under setting [1] is 29.1 µM [rising, single point].

As to `COc1ccc(CNC(=O)CSc2nn3c(=O)c(C(C)(C)C)nnc3s2)cc1OC`, the AC50 under setting [1] is 35.5 µM [falling, partial curve, poor fit].

Consider `O=c1c2sc(-c3ccccc3)cc2nc2n1CCC2`, for which, under setting [1], the concentration at half-maximal activity (AC50) was 10.3 µM [falling, partial curve].

As to `O=C(CCSc1ccc(Br)cc1)c1ccc(O)cc1`, the half-maximal activity concentration (AC50) under setting [1] was 35.5 µM [falling, single point].

`Nc1cc(=O)[nH]c(SCC(=O)Nc2ccc(Cl)c(Cl)c2)n1`: the concentration at half-maximal activity (AC50) under setting [1] is 10.3 µM [rising, partial curve].

Regarding `O=C(CN1CCCC1)Nc1ccc(Br)cc1[N+](=O)[O-]`, the AC50 under setting [1] is 35.5 µM [rising, single point].

`N#Cc1ccc(C2=NC(C(F)(F)F)(C(F)(F)F)c3c(n(Cc4ccco4)c(=O)[nH]c3=O)N2)cc1`: the concentration at half-maximal activity (AC50) under setting [1] was 7.94 µM [rising, partial curve, poor fit].

`COc1ccc(CC2S/C(=N/N=C/c3ccccc3O)NC2=O)cc1` (stereo not drawn): the AC50 under setting [1] was 1.58 µM [falling, full curve].

As to `CC1=C(C(=O)Nc2ccccn2)C(c2ccc(N(C)C)cc2)n2ncnc2N1` (stereo not drawn), the concentration at half-maximal activity (AC50) under setting [1] was 10 µM [rising, partial curve, poor fit].

As for `O=C(Nc1ccccc1)Nc1ccccn1`, the concentration at half-maximal activity (AC50) under setting [1] is 14.1 µM [falling, single point] and 29.1 µM [falling, single point].

Regarding `COCCn1c(C)cc(/C=C2/SC(=O)N(C(C)C(=O)OC)C2=O)c1C` (stereo not drawn), the concentration at half-maximal activity (AC50) reads like this: under setting [1], 15.8 µM [rising, single point]; under setting [2], 11.2 µM [falling, partial curve, poor fit].

Consider `CC(C)CNc1nc(Oc2ccc(=O)[nH]n2)nc(N2CCOCC2)n1`, for which, under setting [1], the AC50 was 35.5 µM [falling, single point].

Consider `CCc1ccc(-c2ccc(C(=O)C(F)(F)F)[nH]2)cc1`, for which the half-maximal activity concentration (AC50) under setting [1] is 1.41 µM [rising, full curve].

On to `O=C(NCc1cc([N+](=O)[O-])ccc1O)c1cccnc1Sc1ccccc1Cl`, for which the AC50 under setting [1] is 0.708 µM [falling, full curve].

In the case of `CC(=O)Nc1cccc(Nc2nc(-c3ccccc3F)nc3ccccc23)c1`, the AC50 under setting [1] is 25.1 µM [falling, single point] and the half-maximal activity concentration (AC50) under setting [2] was 12.6 µM [rising, partial curve, poor fit].

As for `CCOC(=O)C1CCCN(C(=O)c2ccc3c(=O)n(CCOC)c(=S)[nH]c3c2)C1` (stereo not drawn), the half-maximal activity concentration (AC50) under setting [1] is 1.03 µM [falling, full curve].

As for `O=C(CC1CCCC1)Nc1cccc(Br)c1`, the AC50 under setting [1] is 2.51 µM [rising, full curve, poor fit].

Turning to `COC(=O)c1cccc(NC(=O)Cn2nnc3ccccc32)c1`, the AC50 under setting [1] is 15.8 µM [falling, single point].

Regarding `CCCCCOC(=O)Cc1c(O)c2ccccc2n(C)c1=O`, under setting [1], the half-maximal activity concentration (AC50) is 12.6 µM [falling, single point].

As to `Cc1ccc(N(CC(=O)NC2CCCCC2)C(=O)CNC(=O)c2cccs2)cc1`, the AC50 under setting [1] was 12.6 µM [falling, partial curve, poor fit].

Consider `O=C(O)CNC(=O)c1ccc(NC(=O)/C(=C/c2ccccc2)NC(=O)c2ccccc2Br)cc1`, for which the half-maximal activity concentration (AC50) under setting [1] was 1 µM [falling, partial curve, poor fit].

Turning to `COc1ccc(C(=O)OC(C)C(=O)NC2CCCc3ccccc32)cc1OC` (stereo not drawn), the half-maximal activity concentration (AC50) under setting [1] was 29.1 µM [rising, single point].

In general, AC50 refers to the concentration giving half of the maximal activity seen.
